According to the supplement of paper PMC7666118:
The list shows a part of the results.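 How the source made its calls: active = dose-dependent thermal stabilisation significant by F-test of dose-response against flat model at 10% FDR; inactive = not significant.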

Protein sequences, listed by entry. Tags and fused reporters are not part of them. Lines headed by an entry give the natural chain unless they say otherwise; changes in a name come on top.
UniProt Q9HA77: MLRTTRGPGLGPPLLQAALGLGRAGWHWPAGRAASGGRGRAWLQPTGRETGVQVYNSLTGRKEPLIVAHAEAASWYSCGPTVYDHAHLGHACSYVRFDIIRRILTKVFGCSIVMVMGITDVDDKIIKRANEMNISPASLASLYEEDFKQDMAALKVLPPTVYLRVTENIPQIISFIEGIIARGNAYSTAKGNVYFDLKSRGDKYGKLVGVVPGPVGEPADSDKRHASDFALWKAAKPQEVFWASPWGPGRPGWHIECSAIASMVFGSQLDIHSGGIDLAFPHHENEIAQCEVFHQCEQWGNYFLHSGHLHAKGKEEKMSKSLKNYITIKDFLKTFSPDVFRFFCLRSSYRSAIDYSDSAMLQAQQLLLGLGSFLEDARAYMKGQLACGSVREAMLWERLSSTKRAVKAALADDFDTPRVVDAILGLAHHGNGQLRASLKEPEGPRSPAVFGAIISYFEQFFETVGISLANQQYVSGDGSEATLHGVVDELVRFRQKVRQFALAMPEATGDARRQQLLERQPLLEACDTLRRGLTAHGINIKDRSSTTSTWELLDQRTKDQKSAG
UniProt Q7L5N1: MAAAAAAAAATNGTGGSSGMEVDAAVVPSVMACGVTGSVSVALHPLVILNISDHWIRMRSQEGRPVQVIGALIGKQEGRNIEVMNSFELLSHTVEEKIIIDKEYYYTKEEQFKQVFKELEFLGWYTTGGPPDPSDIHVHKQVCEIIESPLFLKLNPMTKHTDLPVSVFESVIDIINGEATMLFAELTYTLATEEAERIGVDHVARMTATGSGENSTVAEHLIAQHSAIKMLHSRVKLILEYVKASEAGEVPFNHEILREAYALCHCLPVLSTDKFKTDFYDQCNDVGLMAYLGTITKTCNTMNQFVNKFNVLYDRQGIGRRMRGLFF
UniProt Q16740, whole entry: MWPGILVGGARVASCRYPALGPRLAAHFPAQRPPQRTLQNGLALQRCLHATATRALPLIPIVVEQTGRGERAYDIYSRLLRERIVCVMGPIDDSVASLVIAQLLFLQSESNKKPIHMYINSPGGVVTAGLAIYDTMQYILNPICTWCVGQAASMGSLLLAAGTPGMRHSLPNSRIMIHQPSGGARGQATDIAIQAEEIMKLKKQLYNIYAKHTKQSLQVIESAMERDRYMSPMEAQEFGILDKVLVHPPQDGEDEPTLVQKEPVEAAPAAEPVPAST
UniProt P13073, whole entry: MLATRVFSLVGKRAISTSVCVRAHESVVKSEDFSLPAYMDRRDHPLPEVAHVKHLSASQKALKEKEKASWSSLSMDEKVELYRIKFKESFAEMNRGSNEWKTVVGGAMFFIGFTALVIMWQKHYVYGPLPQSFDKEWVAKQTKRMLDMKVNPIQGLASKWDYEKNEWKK
UniProt Q9C0F1: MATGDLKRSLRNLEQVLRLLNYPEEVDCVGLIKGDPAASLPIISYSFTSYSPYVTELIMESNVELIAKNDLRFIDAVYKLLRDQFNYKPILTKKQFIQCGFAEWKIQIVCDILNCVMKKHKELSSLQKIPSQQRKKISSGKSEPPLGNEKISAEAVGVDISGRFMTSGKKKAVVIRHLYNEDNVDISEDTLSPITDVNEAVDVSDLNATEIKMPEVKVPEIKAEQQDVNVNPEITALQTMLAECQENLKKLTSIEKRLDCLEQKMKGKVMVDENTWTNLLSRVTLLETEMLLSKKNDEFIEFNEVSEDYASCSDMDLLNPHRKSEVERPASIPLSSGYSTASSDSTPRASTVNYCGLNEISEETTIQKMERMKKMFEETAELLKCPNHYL
UniProt Q96BR5: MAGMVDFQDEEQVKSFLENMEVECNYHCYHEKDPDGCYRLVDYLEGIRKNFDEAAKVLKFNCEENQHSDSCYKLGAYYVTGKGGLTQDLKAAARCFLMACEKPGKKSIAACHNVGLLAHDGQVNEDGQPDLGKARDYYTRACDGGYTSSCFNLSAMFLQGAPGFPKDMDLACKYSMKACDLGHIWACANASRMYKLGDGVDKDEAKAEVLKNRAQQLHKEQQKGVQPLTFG
UniProt Q16667, whole entry: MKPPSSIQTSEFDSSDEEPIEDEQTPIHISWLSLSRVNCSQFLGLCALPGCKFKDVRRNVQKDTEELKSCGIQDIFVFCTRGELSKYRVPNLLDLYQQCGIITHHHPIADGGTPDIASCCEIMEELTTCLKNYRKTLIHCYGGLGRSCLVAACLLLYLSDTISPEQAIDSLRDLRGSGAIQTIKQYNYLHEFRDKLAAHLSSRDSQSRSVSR
UniProt Q8N4Q1: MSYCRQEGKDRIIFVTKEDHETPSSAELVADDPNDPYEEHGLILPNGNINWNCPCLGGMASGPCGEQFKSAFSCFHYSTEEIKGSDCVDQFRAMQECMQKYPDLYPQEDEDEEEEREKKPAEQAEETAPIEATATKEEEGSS
UniProt Q9Y6G5, whole entry: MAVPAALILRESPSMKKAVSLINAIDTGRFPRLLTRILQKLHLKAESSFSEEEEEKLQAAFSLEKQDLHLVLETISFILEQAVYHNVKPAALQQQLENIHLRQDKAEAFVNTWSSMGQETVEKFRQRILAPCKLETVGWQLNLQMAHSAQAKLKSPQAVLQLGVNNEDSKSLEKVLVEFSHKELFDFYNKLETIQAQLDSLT
UniProt Q9GZQ3, whole entry: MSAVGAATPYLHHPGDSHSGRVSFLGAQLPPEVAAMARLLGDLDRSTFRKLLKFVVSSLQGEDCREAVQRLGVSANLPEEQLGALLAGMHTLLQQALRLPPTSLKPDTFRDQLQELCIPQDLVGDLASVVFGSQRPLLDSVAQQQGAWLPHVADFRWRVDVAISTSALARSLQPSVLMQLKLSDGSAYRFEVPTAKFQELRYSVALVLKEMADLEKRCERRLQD
UniProt P21964: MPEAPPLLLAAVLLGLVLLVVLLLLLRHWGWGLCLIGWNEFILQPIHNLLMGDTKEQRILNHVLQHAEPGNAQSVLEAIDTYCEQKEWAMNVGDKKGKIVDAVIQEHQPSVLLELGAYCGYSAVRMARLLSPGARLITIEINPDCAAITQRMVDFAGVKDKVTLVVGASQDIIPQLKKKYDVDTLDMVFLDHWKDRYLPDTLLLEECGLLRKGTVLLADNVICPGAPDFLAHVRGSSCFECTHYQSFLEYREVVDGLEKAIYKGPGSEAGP
UniProt Q9NXV6: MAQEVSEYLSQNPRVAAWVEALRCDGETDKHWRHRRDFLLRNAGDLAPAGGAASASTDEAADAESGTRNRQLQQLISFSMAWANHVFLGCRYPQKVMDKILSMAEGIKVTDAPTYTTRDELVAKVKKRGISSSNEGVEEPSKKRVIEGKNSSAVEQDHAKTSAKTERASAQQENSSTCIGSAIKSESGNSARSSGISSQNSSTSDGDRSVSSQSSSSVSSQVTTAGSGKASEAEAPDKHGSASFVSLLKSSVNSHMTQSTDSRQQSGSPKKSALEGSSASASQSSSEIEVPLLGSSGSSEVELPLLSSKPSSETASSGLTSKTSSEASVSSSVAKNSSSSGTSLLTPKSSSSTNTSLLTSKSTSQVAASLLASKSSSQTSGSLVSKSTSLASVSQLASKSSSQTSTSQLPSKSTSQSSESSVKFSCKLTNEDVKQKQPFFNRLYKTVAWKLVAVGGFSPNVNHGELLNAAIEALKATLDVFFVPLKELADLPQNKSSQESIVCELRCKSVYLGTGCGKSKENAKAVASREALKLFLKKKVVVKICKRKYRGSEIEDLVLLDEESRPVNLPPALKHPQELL
UniProt P23528, whole entry: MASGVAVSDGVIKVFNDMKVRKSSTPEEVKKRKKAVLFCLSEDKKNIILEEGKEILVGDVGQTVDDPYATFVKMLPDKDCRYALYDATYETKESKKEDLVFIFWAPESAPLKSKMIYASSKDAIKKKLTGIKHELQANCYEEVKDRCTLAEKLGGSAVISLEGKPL
UniProt P10606, whole entry: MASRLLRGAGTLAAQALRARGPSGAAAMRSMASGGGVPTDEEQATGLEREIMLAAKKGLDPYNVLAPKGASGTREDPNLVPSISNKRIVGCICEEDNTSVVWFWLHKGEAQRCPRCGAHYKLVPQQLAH
UniProt Q9P031: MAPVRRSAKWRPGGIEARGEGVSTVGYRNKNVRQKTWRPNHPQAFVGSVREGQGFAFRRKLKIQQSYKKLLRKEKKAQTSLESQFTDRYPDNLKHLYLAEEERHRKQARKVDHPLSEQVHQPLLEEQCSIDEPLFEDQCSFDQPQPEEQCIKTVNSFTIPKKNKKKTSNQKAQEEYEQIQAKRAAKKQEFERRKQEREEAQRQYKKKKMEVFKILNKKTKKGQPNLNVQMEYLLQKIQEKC
UniProt Q9NRG0: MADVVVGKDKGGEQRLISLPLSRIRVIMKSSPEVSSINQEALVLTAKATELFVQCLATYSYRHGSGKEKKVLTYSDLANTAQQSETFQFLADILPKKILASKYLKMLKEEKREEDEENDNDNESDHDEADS
UniProt O75131: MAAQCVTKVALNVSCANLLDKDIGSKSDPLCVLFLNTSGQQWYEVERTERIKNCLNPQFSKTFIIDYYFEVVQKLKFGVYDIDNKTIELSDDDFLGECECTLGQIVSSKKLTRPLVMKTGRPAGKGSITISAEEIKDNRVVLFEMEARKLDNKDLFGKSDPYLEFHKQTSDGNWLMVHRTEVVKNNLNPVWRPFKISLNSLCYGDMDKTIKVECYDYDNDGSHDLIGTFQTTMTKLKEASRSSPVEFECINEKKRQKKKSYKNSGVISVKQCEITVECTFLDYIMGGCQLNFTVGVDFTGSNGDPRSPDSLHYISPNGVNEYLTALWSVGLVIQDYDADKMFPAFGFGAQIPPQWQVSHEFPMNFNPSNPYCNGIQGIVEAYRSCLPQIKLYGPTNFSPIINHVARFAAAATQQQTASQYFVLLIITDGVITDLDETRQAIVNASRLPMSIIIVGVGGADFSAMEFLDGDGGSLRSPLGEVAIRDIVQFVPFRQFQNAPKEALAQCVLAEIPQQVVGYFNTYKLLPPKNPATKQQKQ
UniProt P62633: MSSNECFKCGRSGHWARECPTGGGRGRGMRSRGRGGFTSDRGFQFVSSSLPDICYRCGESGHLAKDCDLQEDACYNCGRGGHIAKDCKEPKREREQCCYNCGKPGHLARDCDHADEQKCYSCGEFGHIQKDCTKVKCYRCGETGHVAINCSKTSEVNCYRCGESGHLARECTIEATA
UniProt Q9NX63: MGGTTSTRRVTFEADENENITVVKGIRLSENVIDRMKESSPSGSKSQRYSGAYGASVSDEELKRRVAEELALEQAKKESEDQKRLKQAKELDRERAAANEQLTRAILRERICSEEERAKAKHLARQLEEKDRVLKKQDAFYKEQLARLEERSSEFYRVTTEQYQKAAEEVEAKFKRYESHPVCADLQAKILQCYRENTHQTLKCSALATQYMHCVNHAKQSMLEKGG
UniProt P30260, whole entry: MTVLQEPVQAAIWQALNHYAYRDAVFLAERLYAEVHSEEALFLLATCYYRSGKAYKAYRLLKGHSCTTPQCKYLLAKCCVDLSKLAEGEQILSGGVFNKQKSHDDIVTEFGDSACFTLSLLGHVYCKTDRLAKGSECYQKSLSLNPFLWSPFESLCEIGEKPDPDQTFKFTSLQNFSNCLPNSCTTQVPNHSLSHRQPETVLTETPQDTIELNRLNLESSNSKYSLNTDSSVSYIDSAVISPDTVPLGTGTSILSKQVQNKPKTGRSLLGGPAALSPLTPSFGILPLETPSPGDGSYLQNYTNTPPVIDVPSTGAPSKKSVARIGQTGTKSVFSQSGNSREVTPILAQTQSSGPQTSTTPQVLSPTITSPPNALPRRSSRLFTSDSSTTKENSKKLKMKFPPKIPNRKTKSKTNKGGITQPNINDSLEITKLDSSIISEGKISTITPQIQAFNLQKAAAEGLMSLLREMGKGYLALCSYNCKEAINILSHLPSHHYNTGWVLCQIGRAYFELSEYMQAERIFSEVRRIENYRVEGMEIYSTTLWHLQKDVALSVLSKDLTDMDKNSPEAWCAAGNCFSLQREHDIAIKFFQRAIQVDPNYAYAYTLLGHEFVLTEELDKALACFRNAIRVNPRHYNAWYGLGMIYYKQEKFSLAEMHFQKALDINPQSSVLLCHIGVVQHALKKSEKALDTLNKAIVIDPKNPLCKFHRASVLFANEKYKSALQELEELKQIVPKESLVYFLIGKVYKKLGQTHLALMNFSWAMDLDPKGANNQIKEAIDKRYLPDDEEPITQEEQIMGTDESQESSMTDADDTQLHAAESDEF
UniProt O75419: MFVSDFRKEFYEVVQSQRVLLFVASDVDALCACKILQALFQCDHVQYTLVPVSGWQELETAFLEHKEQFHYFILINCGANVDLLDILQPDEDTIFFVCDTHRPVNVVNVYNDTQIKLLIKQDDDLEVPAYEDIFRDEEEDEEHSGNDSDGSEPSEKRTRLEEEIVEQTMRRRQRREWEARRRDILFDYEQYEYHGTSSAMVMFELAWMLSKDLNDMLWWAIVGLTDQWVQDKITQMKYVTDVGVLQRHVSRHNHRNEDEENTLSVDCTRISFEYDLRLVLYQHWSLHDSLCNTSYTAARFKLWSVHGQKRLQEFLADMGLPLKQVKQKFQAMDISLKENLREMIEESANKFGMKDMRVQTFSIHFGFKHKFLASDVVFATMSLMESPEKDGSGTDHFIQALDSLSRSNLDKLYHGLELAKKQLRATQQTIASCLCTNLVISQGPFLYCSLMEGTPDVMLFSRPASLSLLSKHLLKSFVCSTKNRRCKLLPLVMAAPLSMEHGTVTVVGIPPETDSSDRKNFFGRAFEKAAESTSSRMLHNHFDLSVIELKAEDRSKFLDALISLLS

compound: Nc1nc2c(ncn2[C@@H]2O[C@H](COP(=O)(O)OP(=O)(O)OP(=O)(O)O)[C@@H](O)[C@H]2O)c(=O)[nH]1; experiment: dose-dependent thermal stabilisation call (2D-TPP, DLPTP, 10% FDR) (binary (1 = stabilised)); higher = stabilised by the compound; details: system: Jurkat gel-filtered lysate; concentration range 1-500 µM
Experimental: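 2D thermal proteome profiling in gel-filtered Jurkat E6.1 lysate (2 mg/ml) treated with NaGTP (0, 1, 10, 100, 500 uM) for 10 min at room temperature, then heated 3 min at one of 12 temperatures (42-63.9 C). Soluble protein was quantified by TMT10 MS. The value is the DLPTP call of the paper: dose-dependent thermal stabilisation over all temperatures at 10% FDR (F-test of a dose-response against a flat model); one experiment, one call per tested protein.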

| Target | dose-dependent thermal stabilisation call |
| --- | --- |
| CARS2 (UniProt Q9HA77) | inactive: 0 |
| CCDC88C (UniProt Q9P219) | inactive: 0 |
| COPS6 (UniProt Q7L5N1) | inactive: 0 |
| CLPP (UniProt Q16740) | inactive: 0 |
| COX4I1 (UniProt P13073) | inactive: 0 |
| CEP44 (UniProt Q9C0F1) | inactive: 0 |
| COL4A3BP (UniProt Q9Y5P4) | inactive: 0 |
| COA7 (UniProt Q96BR5) | inactive: 0 |
| CDC16 (UniProt Q13042) | inactive: 0 |
| CHAF1B (UniProt Q13112) | inactive: 0 |
| CDKN3 (UniProt Q16667) | active: 1 |
| CHCHD4 (UniProt Q8N4Q1) | inactive: 0 |
| CPSF7 (UniProt Q8N684) | inactive: 0 |
| CDC5L (UniProt Q99459) | inactive: 0 |
| COMMD10 (UniProt Q9Y6G5) | inactive: 0 |
| COMMD5 (UniProt Q9GZQ3) | inactive: 0 |
| CORO1C (UniProt Q9ULV4) | inactive: 0 |
| CORO1B (UniProt Q9BR76) | inactive: 0 |
| COPS4 (UniProt Q9BT78) | inactive: 0 |
| COMT (UniProt P21964) | active: 1 |

2 records drawn at random from those above:

| Target | dose-dependent thermal stabilisation call |
| --- | --- |
| CPSF7 (UniProt Q8N684) | inactive: 0 |
| CEP44 (UniProt Q9C0F1) | inactive: 0 |

More results:

| Target | dose-dependent thermal stabilisation call |
| --- | --- |
| CBWD1 (UniProt Q9BRT8) | active: 1 |
| CDK5RAP2 (UniProt Q96SN8) | inactive: 0 |
| CNP (UniProt P09543) | active: 1 |
| CDKN2AIP (UniProt Q9NXV6) | inactive: 0 |
| CBLL1 (UniProt Q75N03) | inactive: 0 |
| CFL1 (UniProt P23528) | inactive: 0 |
| CDH4 (UniProt P55283) | inactive: 0 |
| COX5B (UniProt P10606) | inactive: 0 |
| CCDC59 (UniProt Q9P031) | inactive: 0 |
| CIR1 (UniProt Q86X95) | inactive: 0 |
| CHRAC1 (UniProt Q9NRG0) | inactive: 0 |
| CPNE3 (UniProt O75131) | inactive: 0 |
| CCDC97 (UniProt Q96F63) | inactive: 0 |
| CFDP1 (UniProt Q9UEE9) | inactive: 0 |
| CNBP (UniProt P62633) | inactive: 0 |
| CHCHD3 (UniProt Q9NX63) | inactive: 0 |
| CDADC1 (UniProt Q9BWV3) | inactive: 0 |
| COG6 (UniProt Q9Y2V7) | inactive: 0 |
| CDC27 (UniProt P30260) | inactive: 0 |
| CDC45 (UniProt O75419) | inactive: 0 |
